Data reported in paper PMC8196013.
Results are given in words; binding and its absence hold for the method and conditions named. For some of these results: Binding seen in cells or lysates may run through a third protein. Some results given as binding are weak or reduced against the parent protein; the word gives no strength. Values belong to the substance of their own block, whether it stands above or below them.

Amino acid sequences for entries named in this document (tags omitted). A change or cut given only in a name is not applied to a line headed by its entry.
UniProt P22524: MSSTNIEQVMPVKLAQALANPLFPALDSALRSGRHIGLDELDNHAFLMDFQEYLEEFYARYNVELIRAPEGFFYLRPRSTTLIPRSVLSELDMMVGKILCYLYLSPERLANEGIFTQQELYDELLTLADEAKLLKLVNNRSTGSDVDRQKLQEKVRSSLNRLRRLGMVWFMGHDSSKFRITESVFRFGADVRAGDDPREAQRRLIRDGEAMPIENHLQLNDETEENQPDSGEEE
UniProt P60293: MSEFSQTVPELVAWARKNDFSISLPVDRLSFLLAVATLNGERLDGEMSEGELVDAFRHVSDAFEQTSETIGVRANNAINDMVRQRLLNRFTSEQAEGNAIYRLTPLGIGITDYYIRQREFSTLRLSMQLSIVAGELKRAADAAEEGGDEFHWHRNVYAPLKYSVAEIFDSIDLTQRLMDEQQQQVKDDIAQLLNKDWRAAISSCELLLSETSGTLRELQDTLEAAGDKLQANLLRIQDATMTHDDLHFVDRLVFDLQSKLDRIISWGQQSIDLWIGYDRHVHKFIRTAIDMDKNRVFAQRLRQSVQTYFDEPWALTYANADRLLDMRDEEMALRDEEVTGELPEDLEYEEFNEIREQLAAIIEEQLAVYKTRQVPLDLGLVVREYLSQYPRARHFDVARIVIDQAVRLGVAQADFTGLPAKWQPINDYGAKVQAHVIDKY
UniProt P0AFG8: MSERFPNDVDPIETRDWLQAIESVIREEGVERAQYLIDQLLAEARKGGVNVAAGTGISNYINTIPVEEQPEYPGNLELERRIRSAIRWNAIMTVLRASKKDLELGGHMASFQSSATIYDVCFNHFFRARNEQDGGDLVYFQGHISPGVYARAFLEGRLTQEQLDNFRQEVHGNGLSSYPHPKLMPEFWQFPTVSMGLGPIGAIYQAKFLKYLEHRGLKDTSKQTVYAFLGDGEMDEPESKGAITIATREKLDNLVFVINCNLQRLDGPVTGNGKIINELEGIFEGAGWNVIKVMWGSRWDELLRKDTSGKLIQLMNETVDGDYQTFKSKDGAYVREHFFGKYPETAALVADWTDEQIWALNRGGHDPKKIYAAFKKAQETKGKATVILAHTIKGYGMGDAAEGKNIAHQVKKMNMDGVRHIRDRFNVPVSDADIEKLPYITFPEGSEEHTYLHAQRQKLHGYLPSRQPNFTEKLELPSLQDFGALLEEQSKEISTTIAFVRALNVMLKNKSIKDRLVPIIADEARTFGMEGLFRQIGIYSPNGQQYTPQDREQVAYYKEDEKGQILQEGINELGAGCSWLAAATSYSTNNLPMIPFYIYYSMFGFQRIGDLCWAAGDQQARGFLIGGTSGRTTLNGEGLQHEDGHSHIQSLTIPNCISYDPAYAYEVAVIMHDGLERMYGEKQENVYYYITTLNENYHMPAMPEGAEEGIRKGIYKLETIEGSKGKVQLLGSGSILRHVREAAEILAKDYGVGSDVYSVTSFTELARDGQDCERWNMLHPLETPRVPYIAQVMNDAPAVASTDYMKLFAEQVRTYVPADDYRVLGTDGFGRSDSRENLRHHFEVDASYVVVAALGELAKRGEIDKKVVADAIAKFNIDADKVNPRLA
UniProt P06959: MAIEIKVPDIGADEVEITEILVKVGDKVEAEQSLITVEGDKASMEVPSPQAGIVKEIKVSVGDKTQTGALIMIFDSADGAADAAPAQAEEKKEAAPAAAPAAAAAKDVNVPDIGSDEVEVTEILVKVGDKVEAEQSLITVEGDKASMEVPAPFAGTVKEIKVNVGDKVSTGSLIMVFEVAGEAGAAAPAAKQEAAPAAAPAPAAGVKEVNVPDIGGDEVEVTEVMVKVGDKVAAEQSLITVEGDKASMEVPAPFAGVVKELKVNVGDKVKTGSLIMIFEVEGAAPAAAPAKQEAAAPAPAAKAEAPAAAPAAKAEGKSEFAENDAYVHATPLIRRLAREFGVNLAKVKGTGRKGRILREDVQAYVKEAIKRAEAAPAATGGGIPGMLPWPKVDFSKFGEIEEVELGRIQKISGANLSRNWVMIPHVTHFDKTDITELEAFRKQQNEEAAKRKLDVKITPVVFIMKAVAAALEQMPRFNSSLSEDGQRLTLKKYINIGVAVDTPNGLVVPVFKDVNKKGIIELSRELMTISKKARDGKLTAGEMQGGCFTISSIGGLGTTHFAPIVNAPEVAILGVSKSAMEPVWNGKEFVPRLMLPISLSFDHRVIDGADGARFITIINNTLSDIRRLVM
UniProt P0A6F5: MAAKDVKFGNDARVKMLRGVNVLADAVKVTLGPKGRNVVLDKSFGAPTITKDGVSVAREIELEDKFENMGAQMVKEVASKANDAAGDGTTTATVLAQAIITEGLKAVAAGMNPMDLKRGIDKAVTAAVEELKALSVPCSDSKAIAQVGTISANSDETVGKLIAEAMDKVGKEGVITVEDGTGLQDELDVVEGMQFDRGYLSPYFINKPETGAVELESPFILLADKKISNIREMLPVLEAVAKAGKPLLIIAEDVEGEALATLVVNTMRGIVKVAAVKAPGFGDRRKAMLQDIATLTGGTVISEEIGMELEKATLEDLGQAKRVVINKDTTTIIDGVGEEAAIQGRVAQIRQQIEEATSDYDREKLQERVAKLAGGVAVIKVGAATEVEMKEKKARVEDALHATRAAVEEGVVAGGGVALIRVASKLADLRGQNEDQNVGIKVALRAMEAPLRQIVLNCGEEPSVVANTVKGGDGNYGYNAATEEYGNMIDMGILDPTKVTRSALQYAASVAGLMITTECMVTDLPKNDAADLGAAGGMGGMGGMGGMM
UniProt P0A8T7: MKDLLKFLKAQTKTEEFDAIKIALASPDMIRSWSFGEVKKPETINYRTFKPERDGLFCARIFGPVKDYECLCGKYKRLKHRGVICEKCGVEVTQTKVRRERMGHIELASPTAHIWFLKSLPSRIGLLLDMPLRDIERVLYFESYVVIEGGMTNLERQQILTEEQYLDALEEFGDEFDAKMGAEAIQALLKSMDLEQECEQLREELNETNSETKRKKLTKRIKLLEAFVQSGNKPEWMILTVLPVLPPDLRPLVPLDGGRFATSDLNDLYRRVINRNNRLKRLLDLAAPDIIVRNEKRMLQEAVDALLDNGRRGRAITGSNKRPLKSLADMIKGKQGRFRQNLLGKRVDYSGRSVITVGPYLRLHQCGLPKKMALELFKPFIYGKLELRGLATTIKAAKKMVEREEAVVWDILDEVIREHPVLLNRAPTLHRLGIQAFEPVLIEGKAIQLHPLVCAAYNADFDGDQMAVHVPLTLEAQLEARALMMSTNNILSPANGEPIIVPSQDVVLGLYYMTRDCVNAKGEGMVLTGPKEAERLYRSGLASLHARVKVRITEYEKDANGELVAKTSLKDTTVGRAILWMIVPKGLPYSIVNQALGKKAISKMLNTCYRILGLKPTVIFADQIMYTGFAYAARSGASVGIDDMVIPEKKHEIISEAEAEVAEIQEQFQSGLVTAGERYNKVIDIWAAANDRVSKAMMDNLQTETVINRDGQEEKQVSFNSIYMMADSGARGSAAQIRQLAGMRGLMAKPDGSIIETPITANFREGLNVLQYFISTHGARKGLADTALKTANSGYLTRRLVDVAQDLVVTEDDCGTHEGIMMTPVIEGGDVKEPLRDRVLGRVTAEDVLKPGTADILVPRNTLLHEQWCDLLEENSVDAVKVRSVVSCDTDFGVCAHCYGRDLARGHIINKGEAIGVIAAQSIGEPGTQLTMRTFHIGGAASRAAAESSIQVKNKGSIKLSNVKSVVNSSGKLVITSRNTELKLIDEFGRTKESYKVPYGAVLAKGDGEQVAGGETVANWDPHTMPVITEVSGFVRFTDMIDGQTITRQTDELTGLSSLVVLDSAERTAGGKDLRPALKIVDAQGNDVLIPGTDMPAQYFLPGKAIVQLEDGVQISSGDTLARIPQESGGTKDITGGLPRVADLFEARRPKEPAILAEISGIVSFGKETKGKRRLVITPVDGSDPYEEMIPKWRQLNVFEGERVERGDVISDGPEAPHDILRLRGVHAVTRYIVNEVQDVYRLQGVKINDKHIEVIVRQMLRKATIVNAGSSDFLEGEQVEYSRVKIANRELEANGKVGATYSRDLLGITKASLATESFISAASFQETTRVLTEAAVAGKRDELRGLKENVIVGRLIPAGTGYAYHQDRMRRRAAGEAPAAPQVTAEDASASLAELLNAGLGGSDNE
UniProt P0A9P0: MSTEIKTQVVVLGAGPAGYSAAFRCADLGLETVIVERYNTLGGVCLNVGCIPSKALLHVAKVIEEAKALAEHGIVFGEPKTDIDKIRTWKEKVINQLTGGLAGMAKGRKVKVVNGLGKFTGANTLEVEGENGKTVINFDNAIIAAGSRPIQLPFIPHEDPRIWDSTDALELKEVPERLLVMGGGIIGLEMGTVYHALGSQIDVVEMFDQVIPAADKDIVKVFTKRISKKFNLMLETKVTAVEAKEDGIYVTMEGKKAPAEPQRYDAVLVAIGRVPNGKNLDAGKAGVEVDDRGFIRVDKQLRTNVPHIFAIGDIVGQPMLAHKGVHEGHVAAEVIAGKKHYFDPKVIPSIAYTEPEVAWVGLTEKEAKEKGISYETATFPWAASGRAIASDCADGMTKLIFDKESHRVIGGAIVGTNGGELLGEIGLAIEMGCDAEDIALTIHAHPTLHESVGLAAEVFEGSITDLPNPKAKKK
UniProt P0A9X4: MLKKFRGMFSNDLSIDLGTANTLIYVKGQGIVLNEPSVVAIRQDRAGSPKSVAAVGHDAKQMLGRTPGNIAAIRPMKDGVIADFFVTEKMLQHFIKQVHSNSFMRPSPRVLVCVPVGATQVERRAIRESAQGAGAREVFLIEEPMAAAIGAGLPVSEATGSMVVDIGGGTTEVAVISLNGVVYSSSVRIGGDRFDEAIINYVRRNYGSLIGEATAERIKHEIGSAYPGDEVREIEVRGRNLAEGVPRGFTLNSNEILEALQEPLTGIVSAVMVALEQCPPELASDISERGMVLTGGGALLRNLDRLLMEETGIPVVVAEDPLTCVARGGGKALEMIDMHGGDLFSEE
UniProt P60240: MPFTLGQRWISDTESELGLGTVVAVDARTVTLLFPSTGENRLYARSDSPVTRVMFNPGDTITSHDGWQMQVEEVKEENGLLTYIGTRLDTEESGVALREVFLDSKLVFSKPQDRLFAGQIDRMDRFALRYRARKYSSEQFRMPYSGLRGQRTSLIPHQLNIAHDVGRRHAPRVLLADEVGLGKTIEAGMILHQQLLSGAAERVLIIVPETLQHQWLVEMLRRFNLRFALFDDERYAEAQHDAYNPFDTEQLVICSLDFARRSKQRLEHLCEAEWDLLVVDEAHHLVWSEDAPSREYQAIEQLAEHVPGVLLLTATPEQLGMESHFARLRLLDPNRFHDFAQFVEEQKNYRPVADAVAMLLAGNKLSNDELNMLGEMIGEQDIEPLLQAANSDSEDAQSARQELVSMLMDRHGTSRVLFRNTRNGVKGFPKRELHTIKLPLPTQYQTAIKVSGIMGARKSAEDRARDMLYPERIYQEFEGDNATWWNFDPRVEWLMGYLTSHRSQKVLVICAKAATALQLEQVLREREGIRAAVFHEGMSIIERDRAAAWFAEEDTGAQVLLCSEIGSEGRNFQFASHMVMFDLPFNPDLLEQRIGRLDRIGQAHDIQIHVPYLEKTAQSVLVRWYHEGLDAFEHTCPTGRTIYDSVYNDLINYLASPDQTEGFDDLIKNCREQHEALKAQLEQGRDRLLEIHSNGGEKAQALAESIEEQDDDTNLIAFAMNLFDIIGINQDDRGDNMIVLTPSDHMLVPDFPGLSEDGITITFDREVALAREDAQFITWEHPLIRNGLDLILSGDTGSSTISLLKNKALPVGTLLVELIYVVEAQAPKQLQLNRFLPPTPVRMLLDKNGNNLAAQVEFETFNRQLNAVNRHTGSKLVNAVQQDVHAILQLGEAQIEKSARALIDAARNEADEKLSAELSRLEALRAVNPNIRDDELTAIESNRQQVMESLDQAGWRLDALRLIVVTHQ
UniProt P0A7Z4: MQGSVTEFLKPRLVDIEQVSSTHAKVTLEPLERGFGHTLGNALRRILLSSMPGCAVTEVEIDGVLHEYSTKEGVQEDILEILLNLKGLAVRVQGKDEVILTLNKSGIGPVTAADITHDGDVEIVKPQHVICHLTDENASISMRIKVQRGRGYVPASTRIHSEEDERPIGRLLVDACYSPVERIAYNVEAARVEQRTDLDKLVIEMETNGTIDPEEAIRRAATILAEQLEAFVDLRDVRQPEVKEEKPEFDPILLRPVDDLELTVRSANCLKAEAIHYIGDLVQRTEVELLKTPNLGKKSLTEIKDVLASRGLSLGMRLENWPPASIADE
UniProt P0A717: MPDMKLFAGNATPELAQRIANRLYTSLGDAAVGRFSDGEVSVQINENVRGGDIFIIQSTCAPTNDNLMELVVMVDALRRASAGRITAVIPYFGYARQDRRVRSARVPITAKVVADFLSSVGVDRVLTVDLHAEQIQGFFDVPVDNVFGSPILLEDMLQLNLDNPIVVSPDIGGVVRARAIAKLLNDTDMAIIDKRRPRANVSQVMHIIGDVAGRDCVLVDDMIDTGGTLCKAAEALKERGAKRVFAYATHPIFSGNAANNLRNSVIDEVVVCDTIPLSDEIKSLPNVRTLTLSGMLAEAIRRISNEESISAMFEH

Legend:
[1] = target: MukBEF (E. coli K12 (endogenous in BW25113)) (UniProt P22523+P22524+P60293); assay: cross-linking; BS3 or DSSO (0.75 mM, 2 h on ice) in each of 44 SEC fractions of E. coli K12 BW25113 lysate, fractions pooled, digested, SCX and hSAX fractionation, LC-MS; PPIs at 1% heteromeric decoy-based PPI-FDR
[2] = target: aceE (E. coli K12 (endogenous in the lysate)) (UniProt P0AFG8); assay: SEC; E. coli K12 lysate on a BioSep SEC-S4000 column at 4 °C, 44 fractions; elution profile of each protein by label-free quantitative MS (iBAQ); coelution
[3] = target: aceF (E. coli K12 (endogenous in the lysate)) (UniProt P06959); assay: as above
[4] = target: T1, sucA (E. coli K12 (endogenous in the lysate)) (UniProt P0AFG3); assay: as above
T1 sequence: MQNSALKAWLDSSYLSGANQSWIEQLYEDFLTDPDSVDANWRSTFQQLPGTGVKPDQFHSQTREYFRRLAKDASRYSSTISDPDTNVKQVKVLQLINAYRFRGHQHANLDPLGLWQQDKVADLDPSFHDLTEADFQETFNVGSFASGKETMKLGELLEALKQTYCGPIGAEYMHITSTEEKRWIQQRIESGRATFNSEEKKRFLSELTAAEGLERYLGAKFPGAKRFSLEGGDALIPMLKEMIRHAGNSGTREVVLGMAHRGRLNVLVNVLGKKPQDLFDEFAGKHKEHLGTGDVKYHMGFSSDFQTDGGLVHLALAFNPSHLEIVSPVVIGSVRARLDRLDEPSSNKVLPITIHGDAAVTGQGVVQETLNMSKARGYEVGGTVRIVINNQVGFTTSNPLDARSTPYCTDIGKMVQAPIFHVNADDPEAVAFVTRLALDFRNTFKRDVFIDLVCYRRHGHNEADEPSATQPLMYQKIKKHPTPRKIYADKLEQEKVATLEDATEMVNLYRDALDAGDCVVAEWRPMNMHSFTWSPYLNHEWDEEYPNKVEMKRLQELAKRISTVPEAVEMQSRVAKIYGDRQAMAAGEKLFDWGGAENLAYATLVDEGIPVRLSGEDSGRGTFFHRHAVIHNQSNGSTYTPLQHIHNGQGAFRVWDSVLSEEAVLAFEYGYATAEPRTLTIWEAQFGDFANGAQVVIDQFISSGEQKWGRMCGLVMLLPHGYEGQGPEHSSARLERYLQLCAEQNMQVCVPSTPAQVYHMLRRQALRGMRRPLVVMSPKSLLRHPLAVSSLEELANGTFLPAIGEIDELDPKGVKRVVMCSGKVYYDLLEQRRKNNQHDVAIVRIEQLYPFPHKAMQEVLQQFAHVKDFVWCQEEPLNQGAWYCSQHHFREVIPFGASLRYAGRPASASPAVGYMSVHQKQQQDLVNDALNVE

[5] = target: T2, sucB (E. coli K12 (endogenous in the lysate)) (UniProt P0AFG6); assay: as above
T2 sequence: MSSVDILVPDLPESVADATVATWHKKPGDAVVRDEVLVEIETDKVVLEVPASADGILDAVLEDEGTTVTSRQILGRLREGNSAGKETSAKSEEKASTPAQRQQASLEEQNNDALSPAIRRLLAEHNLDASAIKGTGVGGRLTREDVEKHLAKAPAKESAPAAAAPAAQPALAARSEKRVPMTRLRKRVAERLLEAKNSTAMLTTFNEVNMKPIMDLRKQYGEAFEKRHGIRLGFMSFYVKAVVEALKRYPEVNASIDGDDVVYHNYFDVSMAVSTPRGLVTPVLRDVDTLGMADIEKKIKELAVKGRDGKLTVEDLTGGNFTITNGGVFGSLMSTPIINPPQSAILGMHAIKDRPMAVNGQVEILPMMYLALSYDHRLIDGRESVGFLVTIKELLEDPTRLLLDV

[6] = target: aceE (E. coli K12 (endogenous in the lysate)) (UniProt P0AFG8); assay: cross-linking; BS3 or DSSO (0.75 mM, 2 h on ice) in the single SEC fractions of E. coli K12 lysate, fractions pooled, LC-MS; PPIs at 1% heteromeric PPI-FDR
[7] = target: aceF (E. coli K12 (endogenous in the lysate)) (UniProt P06959); assay: as above
[8] = target: T1, sucA (E. coli K12 (endogenous in the lysate)); assay: as above
[9] = target: T2, sucB (E. coli K12 (endogenous in the lysate)); assay: as above
[10] = target: GroEL (E. coli K12 (endogenous in the lysate)) (UniProt P0A6F5); assay: as above
[11] = target: T3, MukBEF complex (E. coli K12 (endogenous in the lysate)) (UniProt P22523+P22524+P60293); assay: SEC; E. coli K12 lysate on a BioSep SEC-S4000 column at 4 °C, 44 fractions; elution profile of each protein by label-free quantitative MS (iBAQ); coelution
[12] = target: rpoC (E. coli K12 (endogenous in the lysate)) (UniProt P0A8T7); assay: cross-linking; BS3 or DSSO (0.75 mM, 2 h on ice) in the single SEC fractions of E. coli K12 lysate, fractions pooled, LC-MS; PPIs at 1% heteromeric PPI-FDR
RpoB-SPA (E. coli K12) = RpoB-SPA (E. coli K12) (UniProt P0A8V2); assay: cross-linking; sulfo-SDA (50-1000 µM, 2 h on ice, UV 365 nm) on the TEV eluates of the YacL-SPA, RpoB-SPA and NusG-SPA enrichments; LC-MS; 2% residue pair FDR, 5% PPI FDR
[13] = target: rpoB (E. coli K12 (endogenous in the lysate)) (UniProt P0A8V2); assay: as above
[14] = target: rpoC (E. coli K12 (endogenous in the lysate)) (UniProt P0A8T7); assay: as above
[15] = target: T3, MukBEF complex (E. coli K12 (endogenous in the lysate)); assay: cross-linking; BS3 or DSSO (0.75 mM, 2 h on ice) in the single SEC fractions of E. coli K12 lysate, fractions pooled, LC-MS; PPIs at 1% heteromeric PPI-FDR

Substance: lpdA (from UniProt P0A9P0 1-474)
binding [2]: binds
binding [3]: binds
binding [4]: binds
binding [5]: binds
binding [6]: binds
binding [7]: binds
binding [8]: binds
binding [9]: binds

Substance: mreB (from UniProt P0A9X4 1-347)
binding [10]: binds

Substance: AcpP (from UniProt P0A6A8 1-78)
binding [11]: binds

Substance: RapA (from UniProt P60240 1-968)
binding [12]: binds
binding (RpoB-SPA (E. coli K12)): binds
binding [13]: binds
binding [14]: binds

Substance: aceF (from UniProt P06959 1-630)
binding [6]: binds

Substance: hupA (from UniProt P0ACF0 1-90)
binding [15]: binds

Now from value to substance:

binding [1]: binds
Substance: acyl carrier protein (from UniProt P0A6A8 1-78)

binding [10]: binds
Substance: rpoA (from UniProt P0A7Z4 1-329)

binding [14]: binds
Substance: prS (from UniProt P0A717 1-315)
